# ± gives the standard deviation of the averaged measurements. Over roughly 3,800 compounds, “cell shape (eccentricity) Z-score vs DMSO control” has its median near 1.1; the lowest 2% begin near -4.7. This is one part of the list.
# Test system: human monocyte-derived macrophages (M0)
# Assay: cell shape (eccentricity) Z-score vs DMSO control; higher = more elongated, M2-like morphology
# Conditions: 20 µM; 24 h; macrophage state: M0 (M-CSF)
row,SMILES,cell shape (Z-score)
1,COc1ccc(-c2cc(C(F)F)nn2-c2ccc(S(N)(=O)=O)cc2)cc1F,0.349
2,C=C1C[C@]23C[C@@]1(O)CC[C@H]2[C@@]12C=C[C@H](O)[C@](C)(C(=O)O1)[C@H]2[C@@H]3C(=O)O,-0.753
3,O=C(c1ccc2c(c1)OCO2)N1CCCCC1,-0.873
4,COc1cc(O)c2c(=O)cc(C)oc2c1CC=C(C)C,4.2
5,O=C(Oc1ccc([C@@H]2Oc3cc(O)cc(O)c3C[C@H]2O)cc1O)c1cc(O)c(O)c(O)c1,0.214
6,CCOC(=O)/C=C\n1nnc(-c2cccc(Cl)c2)n1,4.62
7,COCCCCC(=NOCCN)c1ccc(C(F)(F)F)cc1,-14.7
8,CNCc1ccccc1,2.47
9,CC(=O)[C@@]1(O)CCC2C3CCC4=CC(=O)CC[C@]4(C)C3CC[C@@]21C (stereo partly drawn),2.17
10,O=C(O)Cc1ccccc1Nc1c(Cl)cccc1Cl,-2.82
11,Cn1cnnc1Sc1c([N+](=O)[O-])ncn1C,2.65
12,Nc1nc(NCCc2ccc(O)cc2)nc2nc(-c3ccco3)nn12,2.77
13,CCCCCCCCC/C=C/CCCCC(=O)C1C(=O)CCC(O)C1=O (stereo not drawn),1.37
14,CCOC(=O)OC(C)OC1=C(C(=O)Nc2ccccn2)N(C)S(=O)(=O)c2ccccc21 (stereo not drawn),1.06
15,COc1cc(OC)cc(OC)c1,2.38
16,CN1C(=O)C(Cc2c[nH]c3ccccc23)NC1=S (stereo not drawn),4.67
17,COc1cc2c(Oc3ccc(NC(=O)C4(C(=O)Nc5ccc(F)cc5)CC4)cc3F)ccnc2cc1OCCCN1CCOCC1,4.4
18,CN(C)CCCSc1ccccc1NC(=O)C=Cc1ccccc1,0.44
19,OC(CCN1CCCCC1)(c1ccccc1)C1CC2C=CC1C2 (stereo not drawn),1.11
20,Cc1ccc(CC2(O)CCN(CCOc3ccc(O)cc3)CC2)cc1,1.75
21,CC1(O)C(O)C(CO)OC1n1cnc2c(NC3CCCC3)nc(Cl)nc21 (stereo not drawn),2.53
22,COc1cc2nc(N3CCCN(C)CC3)nc(NC3CCN(Cc4ccccc4)CC3)c2cc1OC,3.25

# Some values from above:
# C=C1C[C@]23C[C@@]1(O)CC[C@H]2[C@@]12C=C[C@H](O)[C@](C)(C(=O)O1)[C@H]2[C@@H]3C(=O)O | cell shape (Z-score): -0.753
# CCCCCCCCC/C=C/CCCCC(=O)C1C(=O)CCC(O)C1=O (stereo not drawn) | cell shape (Z-score): 1.37
# COc1cc2c(Oc3ccc(NC(=O)C4(C(=O)Nc5ccc(F)cc5)CC4)cc3F)ccnc2cc1OCCCN1CCOCC1 | cell shape (Z-score): 4.4
# COc1cc(OC)cc(OC)c1 | cell shape (Z-score): 2.38
# CC1(O)C(O)C(CO)OC1n1cnc2c(NC3CCCC3)nc(Cl)nc21 (stereo not drawn) | cell shape (Z-score): 2.53

# (continued)

row,SMILES,cell shape (Z-score)
1,CSC(=O)OCC1=C[C@@H]2OC(=O)C3=CO[C@@H](O[C@@H]4O[C@H](CO)[C@@H](O)[C@H](O)[C@H]4O)[C@H]1[C@@H]32,1.25
2,CC(=O)OCC1=C[C@H](O)[C@@H]2C(C(=O)O)=CO[C@@H](O[C@@H]3O[C@H](CO)[C@@H](O)[C@H](O)[C@H]3O)[C@H]12,-1.17
3,Cc1cc(O)c(C(=O)N[C@@H](C(=O)N[C@@H]2C(=O)N3C(C(=O)O)=C(CSc4nnnn4C)CS[C@H]23)c2ccc(O)cc2)cn1,2.09
4,C[C@]12CCC(=O)C=C1CCC1C2[C@@H](O)C[C@@]2(C)C1CC[C@]2(O)C(=O)CO (stereo partly drawn),-1.04
5,O=C1C(=O)N(Cc2ccc(Cl)c(Cl)c2)c2ccccc21,-0.0499
6,COC1=CC(=O)O[C@@H](CCc2ccccc2)[C@@H]1O,0.84
7,N=C(N)c1ccc(N2CCN(C3CCN(CC(=O)O)CC3)CC2)cc1,1.66
8,CCNC(=O)C1OC(n2cnc3c(N)nc(NCCc4ccc(CCC(=O)O)cc4)nc32)C(O)C1O (stereo not drawn),2.87
9,Clc1ccc(CSC(Cn2ccnc2)c2ccc(Cl)cc2Cl)cc1 (stereo not drawn),2.22
10,C/C=C(\C)C(=O)OC1CCC(=O)OC1/C=C/C(O)C(C)O (stereo not drawn),0.389
11,C/C=C(/C)C(=O)O[C@H]1C[C@@](C)(O)C(=O)[C@@H](OC(=O)/C(C)=C\C)[C@@]2(C)CC[C@@](O)(C(C)C)[C@H]12,1.83 ± 0.59
12,Cc1cc(O)cc2oc3cc(O)cc(O)c3c(=O)c12,-1.58
13,C=CCn1c(=O)n(C2OC(CO)C(O)C2O)c2nc(N)[nH]c(=O)c21 (stereo not drawn),2.14
14,O=C(OC1C(c2c(O)cc(O)c(C(=O)c3ccc(O)cc3)c2O)OC(CO)C(O)C1O)c1cc(O)c(O)c(O)c1 (stereo not drawn),0.624 ± 0.24
15,C[C@@H]1O[C@@H](Oc2cc(O)c3c(=O)c(O[C@@H]4O[C@@H](C)[C@H](O)[C@@H](O[C@@H]5OC[C@@H](O)[C@H](O)[C@H]5O)[C@H]4O[C@@H]4O[C@H](CO)[C@@H](O)[C@H](O)[C@H]4O)c(-c4ccc(O)c(O)c4)oc3c2)[C@H](O)[C@H](O)[C@H]1O,1.3
16,Oc1ccc([C@H]2Oc3cc(O)cc(O)c3C[C@H]2O)cc1,1.71
17,COc1cc(O)c(C(=O)/C=C/c2ccc(OC)c(OC)c2)c(OC)c1,0.627 ± 2
18,CO[C@H]1CN(C)C(=O)c2cccc(C#N)c2OC[C@H]2O[C@@H](CC[C@H]2OC)CCN(C)C(=O)[C@H]1C,2.38
19,OC1(c2ccc(Cl)cc2)CCNCC1,0.736
20,CN(C)CCN(Cc1ccccc1)c1ccccn1,2.01
21,CN(C)CCCC1(c2ccc(F)cc2)OCc2cc(C#N)ccc21 (stereo not drawn),-0.667
22,CC1(C)S[C@@H]2[C@H](NC(=O)Cc3ccccc3)C(=O)N2[C@H]1C(=O)O,-0.81

row,SMILES,cell shape (Z-score)
1,Nc1ccn([C@@H]2O[C@H](CO)[C@@H](O)C2(F)F)c(=O)n1,-1.18 ± 2.9
2,CCCN(CCC)CC1CCCCN1CCNC(=O)N1c2ccccc2C(=O)Nc2cccnc21 (stereo not drawn),1.21
3,NCCCCCCNS(=O)(=O)c1cccc2c(Cl)cccc12,2.91
4,COc1cc2c(ccc3cc(OC)c(OC)c(O)c32)cc1O,0.937
5,CCN(CC)CCOCCOC(=O)C1(c2ccccc2)CCCC1,1.23
6,C=C(C(=O)O)C(CCCCCCO)C(=O)O (stereo not drawn),1.66
7,CN1CCN2c3ccccc3Cc3ccccc3C2C1 (stereo not drawn),0.466
8,CC1=NN(c2ccc(C(=O)O)cc2)C(=O)/C1=C/c1ccc(-c2cc(C)c(C)cc2[N+](=O)[O-])o1,5.36
9,Cc1ccc(OCC(O)C(C)NC(C)C)c2c1CCC2 (stereo not drawn),2.52
10,Cc1ccccc1NC(=N)Nc1ccccc1C,2.28
11,C=C(c1ccc(C(=O)O)cc1)c1cc2c(cc1C)C(C)(C)CCC2(C)C,4.68 ± 0.93
12,COc1cc(/C=C/C(=O)OC2CC3CCC2(C)C3(C)C)ccc1O (stereo not drawn),8.55
13,O=C(/C=C/c1ccccc1)CC(=O)/C=C/c1ccccc1,-8.63
14,CCN(CC)C(=O)c1cccc(C)c1,2.78
15,COc1c2c(c(C)c3c1C(=O)OC3)OC1(C)CC(O)C(C(C)(C)O)C(C)(CCC(=O)O)C1C2 (stereo not drawn),0.417 ± 1.1
16,C[C@H]1O[C@H](O[C@H]2[C@H](O)[C@@H](O)[C@@H](O[C@H]3[C@H](O)[C@@H](O)C(O)O[C@@H]3CO)O[C@@H]2CO)[C@H](O)[C@@H](O)[C@@H]1N[C@H]1C=C(CO)[C@@H](O)[C@H](O)[C@H]1O (stereo partly drawn),-0.306
17,COC1/C=C/OC2(C)Oc3c(C)c(O)c4c(c3C2=O)C2(C=C(NC(=O)/C(C)=C\C=C\C(C)C(O)C(C)C(O)C(C)C(OC(C)=O)C1C)C4=O)OCC(=O)O2 (stereo not drawn),1.4
18,COc1ccc(NC(=O)c2ccc(-c3ccc(-c4noc(C)n4)cc3C)cc2)cc1N1CCN(C)CC1,-0.626
19,CC(NC(=O)Cc1cc(F)cc(F)c1)C(=O)NC(C(=O)OC(C)(C)C)c1ccccc1 (stereo not drawn),-4.4
20,CSCC[C@H](NC(=O)[C@@H](N)Cc1c[nH]c2ccccc12)C(=O)N[C@@H](CC(=O)O)C(=O)N[C@@H](Cc1ccccc1)C(N)=O,-0.866
21,CC(=O)N(O)[C@@H]1c2cc(C#N)ccc2OC(C)(C)[C@H]1O,0.644
22,CC1=CC(=O)CC2C1(C)CCC(C)C2(C)CC/C(C)=C\C(=O)O (stereo not drawn),8.02

row,SMILES,cell shape (Z-score)
1,OC(CN1CCC(Cc2ccc(F)cc2)CC1)c1ccc(Cl)cc1 (stereo not drawn),-3.34
2,C[C@@H]1O[C@@H](O[C@H]2[C@@H]3C=CO[C@@H](O[C@@H]4O[C@H](CO)[C@@H](O)[C@H](O)[C@H]4O)[C@@H]3[C@@]3(CO)O[C@@H]23)[C@H](OC(=O)/C=C/c2ccc(O)c(O)c2)[C@H](O)[C@H]1O,-0.274
3,COc1cc(C[C@H]2CO[C@H](c3ccc(O[C@@H]4O[C@H](CO)[C@@H](O)[C@H](O)[C@H]4O)c(OC)c3)[C@H]2CO)ccc1O,0.25 ± 0.75
4,O=c1cc(-c2ccccc2O)oc2cc(O)ccc12,1.23
5,COC(=O)C1(Cc2ccc(O)cc2)OC(=O)C(OC)=C1c1ccc(O)cc1 (stereo not drawn),1.59 ± 0.76
6,CCOC(=O)COc1ccc2c(=O)cc(-c3ccccc3)oc2c1,0.221
7,CC1(C)CC[C@]2(C(=O)O)CC[C@]3(C)C(=CCC4[C@@]5(C)CC[C@H](O[C@@H]6O[C@H](CO)[C@@H](O)[C@H](O)[C@H]6O)[C@@](C)(CO)C5CC[C@]43C)[C@@H]2C1 (stereo partly drawn),1.14
8,O=C1NC(=O)[C@@H](c2cn3c4c(cccc24)CCC3)[C@@H]1c1c[nH]c2ccccc12,-1.76
9,C/C=C1\[C@H](O[C@@H]2O[C@H](CO)[C@@H](O)[C@H](O)[C@H]2O)OC=C(C(=O)OC)[C@H]1CC(=O)OC,0.196
10,CNC(=NC#N)NCCSCc1csc(N=C(N)N)n1,2.04
11,O=C1c2ccccc2CCC1CNCCc1ccc(O)cc1 (stereo not drawn),2.69
12,O=c1cc(N2CCNCC2)oc2c(-c3ccccc3)cccc12,0.793
13,C=C(C)[C@H]1C[C@@]2(C)C(=CC1=O)CC[C@@H](O)[C@@H]2C,-0.264
14,C[C@@H]1O[C@@H](O[C@@H]2[C@@H](O)[C@H](Oc3cc(O)c4c(c3)OC(c3ccc(O)cc3)CC4=O)O[C@H](COC3OCC(O)C(O)C3O)[C@H]2O)[C@H](O)[C@H](O)[C@H]1O (stereo partly drawn),-0.0118
15,Cc1cc(=O)oc2cc(O)cc(O)c12,-0.982
16,O=c1cc(-c2ccccc2)oc2cc(O)ccc12,-0.27
17,c1cc(NCCc2c[nH]c3ccccc23)cc(Nc2ccncc2)c1,2.05
18,COc1ccc2c(c1OC)OC[C@@H](c1ccc(OC)c(OC)c1OC)C2,2.19
19,OC[C@H]1O[C@@H](OC(CCCCc2ccc(O)cc2)CCc2ccc(O)cc2)[C@H](O)[C@@H](O)[C@@H]1O (stereo partly drawn),0.0638 ± 0.68
20,C=C(C(=O)O[C@@H]1O[C@H](CO)[C@@H](O)[C@H](O)[C@H]1O)[C@@H]1CC[C@@]2(C)C[C@H](O)C[C@@](C)(O)C2C1 (stereo partly drawn),2.36
21,Nc1nnnn1-c1ccccc1,0.136
22,CC1(C)CC[C@]2(C(=O)O)CC[C@]3(C)C(=CCC4[C@@]5(C)CC[C@H](O[C@@H]6OC[C@H](O)[C@H](O)[C@H]6O)[C@@](C)(CO)C5CC[C@]43C)C2C1 (stereo partly drawn),-2.37

# Source: the supplement of paper PMC7858590
